# Structures can show the parent of a compound that is named as a salt. ± gives the standard deviation of the averaged measurements. The list shows a part of the results. Single values are uncertain here, since repeats match poorly.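 Cells were counted by imaging DAPI-stained nuclei, and cells lacking phalloidin-stained cytoplasm were excluded as dead. Each well's count was divided by the median count of the vehicle wells on the same plate, and values were averaged over two replicate plates.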
# Test system: OVCAR8
# Assay: cell count relative to DMSO vehicle (fold change); higher = more surviving senescent cells (less killing)
# Conditions: senescence inducer: cisplatin 10 µM 48 h, then 6 d recovery (CP senescent), exposure time 24 h
SMILES,cell count (compound dose 1 µM),cell count (compound dose 5 µM)
CC1(C)CC[C@]2(NC(=O)C(C)(F)F)CC[C@]3(C)[C@H](C(=O)C=C4[C@@]5(C)C=C(C#N)C(=O)C(C)(C)[C@@H]5CC[C@]43C)[C@@H]2C1 [Omaveloxolone],0.381 ± 0.031,0.026 ± 0.011
O=C(NNc1nc2cc(F)ccc2n2cccc12)c1cnccn1,1.07 ± 0.2,0.788 ± 0.15
CCN1C(=O)C=CC1=O [N-Ethylmaleimide],1.13 ± 0.052,1.11 ± 0.12
COc1ccc2[nH]cc(/C=C3\C(=O)Nc4ccc(NC(=O)CCN5CCCCC5)cc43)c2c1,0.827 ± 0.085,0.545 ± 0.045
CNC(=O)COc1cc2cc(Nc3nc(N4CCC(C(=O)N(C)C)CC4)ncc3Cl)cc(OC)c2n(C)c1=O,1.15 ± 0.057,1.15 ± 0.036
COc1cc(Nc2ncc3c(n2)-c2ccc(Cl)cc2C(c2c(F)cccc2OC)=NC3)ccc1C(=O)O [Alisertib (MLN8237)],1.07 ± 0.094,0.934 ± 0.021
O=c1cc(N2CCOCC2)oc2c(-c3ccccc3)cccc12,0.982 ± 0.17,1.03 ± 0.17
COc1ccc2cc1Oc1ccc(cc1)C[C@H]1c3cc(c(OC)cc3CCN1C)Oc1c(O)c(OC)cc3c1[C@H](C2)N(C)CC3 [Fangchinoline],1.14 ± 0.12,1.04 ± 0.17
"Nc1cc(C(F)(F)F)c(-c2cc(N3CCOCC3)nc(N3CCOCC3)n2)cn1 [Buparlisib (BKM120, NVP-BKM120)]",0.736 ± 0.083,0.359 ± 0.099
O=C(O)c1cc(=O)c2ccccc2[nH]1 [Kynurenic acid (sodium)],0.867 ± 0.076,0.679 ± 0.028
O=C(O)c1cc(=O)c2ccccc2[nH]1,1.01 ± 0.14,0.416 ± 0.12
Clc1ccc(C(c2ccccc2Cl)C(Cl)Cl)cc1 (stereo not drawn),0.881 ± 0.11,0.815 ± 0.0092
O=C1O[C@H]([C@@H](O)CO)C(O)=C1O [L-Ascorbic acid],1.12 ± 0.17,1.06 ± 0.017
O=C(O)C1(c2ccc(-c3ccc(Cl)c(Cl)c3)c(F)c2)CC1 [Itanapraced],0.741 ± 0.47,0.654 ± 0.1
CCCCN1CCCC[C@H]1C(=O)Nc1c(C)cccc1C [Levobupivacaine (hydrochloride)],0.986 ± 0.16,0.938 ± 0.037
CNCc1ccc(C)c(NC(=O)c2ccc(Nc3nc(-c4ccccc4)c4ccccc4n3)cc2)c1,0.989 ± 0.069,0.714 ± 0.058
CCCc1cc2c(N3CCN(C4=NCC(C)(C)S4)CC3)ncnc2s1 [MI-2 (Menin-MLL Inhibitor)],1.07 ± 0.078,0.656 ± 0.49
Fc1ccc(Nc2nc(Nc3ccc(-c4nc5ccccc5[nH]4)cc3)nc(N3CCOCC3)n2)cc1,1.14 ± 0.12,0.695 ± 0.36
Cc1cc(F)c(C(=O)Nc2cccc(-c3nncn3C(C)C)n2)cc1-n1cnc(C2CC2)c1 [Selonsertib],0.945 ± 0.018,0.615 ± 0.26
O=C(Nc1ccc(CN2CCOCC2)cc1)c1ccc(-c2cccc(Cl)c2)o1,0.962 ± 0.089,1.34 ± 0.034
CN1CCN(c2ccc3nc(-c4ccc5nc(-c6cccc(OCCCC(=O)NCCCN=[N+]=[N-])c6)[nH]c5c4)[nH]c3c2)CC1 [Targapremir-210],1.2 ± 0.051,0.811 ± 0.21
O=C(c1ccc(F)c(F)c1Nc1ccc(I)cc1F)N1CC(O)([C@@H]2CCCCN2)C1 [Cobimetinib],1.01 ± 0.069,0.9 ± 0.0099

# Eight entries from above, set out differently:
SMILES	cell count (compound dose 1 µM)	cell count (compound dose 5 µM)
O=C(O)c1cc(=O)c2ccccc2[nH]1 [Kynurenic acid (sodium)]	0.867 ± 0.076	0.679 ± 0.028
O=C(O)c1cc(=O)c2ccccc2[nH]1	1.01 ± 0.14	0.416 ± 0.12
Clc1ccc(C(c2ccccc2Cl)C(Cl)Cl)cc1 (stereo not drawn)	0.881 ± 0.11	0.815 ± 0.0092
O=C1O[C@H]([C@@H](O)CO)C(O)=C1O [L-Ascorbic acid]	1.12 ± 0.17	1.06 ± 0.017
O=C(O)C1(c2ccc(-c3ccc(Cl)c(Cl)c3)c(F)c2)CC1 [Itanapraced]	0.741 ± 0.47	0.654 ± 0.1
CCCCN1CCCC[C@H]1C(=O)Nc1c(C)cccc1C [Levobupivacaine (hydrochloride)]	0.986 ± 0.16	0.938 ± 0.037
CNCc1ccc(C)c(NC(=O)c2ccc(Nc3nc(-c4ccccc4)c4ccccc4n3)cc2)c1	0.989 ± 0.069	0.714 ± 0.058
CCCc1cc2c(N3CCN(C4=NCC(C)(C)S4)CC3)ncnc2s1 [MI-2 (Menin-MLL Inhibitor)]	1.07 ± 0.078	0.656 ± 0.49

# Further results

SMILES,cell count (compound dose 1 µM),cell count (compound dose 5 µM)
CCCCS(=N)(=O)CCC(N)C(=O)O (stereo not drawn),1.15 ± 0.18,0.972 ± 0.25
C=CC(=O)N1CCC[C@H](n2c(=O)n(-c3ccc(Oc4ccccc4)cc3)c3c(N)ncnc32)C1 [ONO-4059 (analog)],1.12 ± 0.059,0.852 ± 0.12
COc1cc(O)c(C(=O)/C=C/c2ccccc2)c(OC)c1 [Flavokawain B],0.871 ± 0.095,0.873 ± 0.04
CCCc1nn(C)c2c(=O)[nH]c(-c3cc(S(=O)(=O)N4CCN(C)CC4)ccc3OCC)nc12,1.17 ± 0.063,0.867 ± 0.49
COc1cc(CNC(=O)CCCCCCC(C)C)ccc1O [Dihydrocapsaicin],1.09 ± 0.08,0.915 ± 0.056
N#CC[C@H](C1CCCC1)n1cc(-c2ncnc3[nH]ccc23)cn1 [Ruxolitinib],1.13 ± 0.066,0.728 ± 0.25
Cn1cnc2c(F)c(Nc3ccc(Br)cc3Cl)c(C(=O)NOCCO)cc21 [Selumetinib (AZD6244)],1.3 ± 0.14,1.22 ± 0.098
CC1(C)O[C@@H]2C[C@H]3[C@@H]4C[C@H](F)C5=CC(=O)C=C[C@]5(C)[C@H]4[C@@H](O)C[C@]3(C)[C@]2(C(=O)CO)O1 [Flunisolide],1.16 ± 0.042,1.137 ± 0.0092
CCOC(=O)c1c2c3c(cccc3[nH]c1=O)C(=O)c1ccccc1-2,1.04 ± 0.24,1.08 ± 0.071
COc1ccc(-c2cc(=O)c3c(OC)cc(OC)cc3o2)cc1,0.742 ± 0.028,1.06 ± 0.1
CC(ONC(=O)c1cc(C(F)(F)F)cc(C(F)(F)F)c1)C(=O)Nc1ccc(Cl)cc1 (stereo not drawn),0.814 ± 0.15,0.985 ± 0.073
Cn1nnc2c(C(N)=O)ncn2c1=O,1.062 ± 0.0021,1.03 ± 0.18
COc1ccc(-c2cc3nccn3c(Nc3ncccc3C(N)=O)n2)cc1OC [BAY 61-3606 (dihydrochloride)],1.38 ± 0.072,1.18 ± 0.082
C=C1C(=O)O[C@H]2[C@H]1CC/C(C)=C/CC[C@@]1(C)O[C@@H]21 [Parthenolide],0.779 ± 0.046,0.481 ± 0.13
COCCOc1cnc(Sc2cc(C)c(-c3csc(NC(=O)c4ccncc4)n3)c(C)c2)cn1 [T-1101 (tosylate)],1.02 ± 0.19,1.09 ± 0.042
Cc1ccc(C(=O)Cn2c3c(sc2=N)CCCC3)cc1 [Pifithrin-α (hydrobromide)],1.01 ± 0.14,0.801 ± 0.2
CNC(=O)[C@H]1O[C@@H](n2cnc3c(NCc4ccc(I)cc4)ncnc32)[C@H](O)[C@@H]1O [Piclidenoson],0.779 ± 0.013,0.801 ± 0.17
O=C(CCl)NCc1cccc2c1C(=O)N(C1CCC(=O)NC1=O)C2=O (stereo not drawn),1.09 ± 0.1,1.13 ± 0.29
O=C1Nc2ccccc2C1=O [Isatin],1.08 ± 0.066,1.26 ± 0.15
COc1ccc(-c2cc(=O)c3c(OC)c(OC)c(OC)c(OC)c3o2)cc1,0.87 ± 0.019,0.576 ± 0.33
CO[C@H]1C[C@@H]2CC[C@@H](C)[C@@](O)(O2)C(=O)C(=O)N2CCCC[C@H]2C(=O)O[C@H]([C@H](C)C[C@@H]2CC[C@@H](OC(=O)C(C)(CO)CO)[C@H](OC)C2)CC(=O)[C@H](C)/C=C(\C)[C@@H](O)[C@@H](OC)C(=O)[C@H](C)C[C@H](C)/C=C/C=C/C=C/1C [Temsirolimus],0.927 ± 0.064,0.763 ± 0.018
COc1ccc(-c2cc(=O)c3c(OC)c(OC)c(OC)c(OC)c3o2)cc1OC,1.17 ± 0.059,0.803 ± 0.47

# Source: the supplement of paper PMC12462457
